Earlier results in patent publication US20230302026A1, “IMMUNOMODULATION FORMULATIONS AND RELATED METHODS” (priority 2020, published 2023).
At least one structure is not confirmed: it was looked up by name or label, or the drawing left a doubt.

Test system: IL6, MMP13, PGE2

O=C(/C=C/C=C/c1ccc2c(c1)OCO2)N1CCCCC1 [piperine]
concentration inhibiting PGE2: about 10 μg/ml
